The record followed here is PubChem BioAssay AID2685 (National Center for Advancing Translational Sciences (NCATS), 2010).

Molecules are shown by their SMILES. Some of the results follow. These are further read-outs of the screen, such as a control signal, another cell line or another target. No call is given for them. Compounds called inactive in the main read-out are mostly missing here. Words in brackets tell the shape of the fitted curve; partial curves, single points and poor fits give uncertain potencies.

A short description of the assay: qHTS Assay for Lipid Storage Modulators in Drosophila S3 Cells.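 For cell number change: cells counted by Cell Tracker Red CMTPX staining in the red channel.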 Particulars: BODIPY lipid droplet fluorescence, 18-24 h; for cell number change: measured here: cell count max response, cells fed with added oleic acid. The procedure, abridged: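 Drosophila S3 cells loaded with oleic acid (400 uM, as added) and compounds at several concentrations; lipid droplets imaged by 488-nm laser-scanning cytometry, 500–530 nm intensity and object ratio to cell channel. Percent activity normalized to 20 uM Triacsin C.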
On the technique in general: In qHTS, concentration-response curves come from the screen itself.

Setting [1] is: measured here: cell number channel AC50, cells fed with added oleic acid.
The mark [2] stands for this setting: measured here: lipid fluorescence (Fed channel) AC50, cells fed with added oleic acid.

As a reminder, the AC50 is the concentration giving half of the maximal activity seen. A high value points to weaker potency. Turning to `CCOc1ccccc1NC(=O)NCCC1=CCCCC1`, the cell number change is 8.05%. For the same compound, under setting [1], the AC50 is 4.11 µM [falling, single point].
For the compound `N#Cc1ccc(NC(=O)CCc2nc3ccccc3s2)cc1`, the cell number change was -0.89%. The AC50 under setting [2] is 2.06 µM [rising, partial curve, poor fit].
For the compound `CCOC(=O)C1=C(O)C(=O)N(c2ccc(S(N)(=O)=O)cc2)C1c1ccc(Br)cc1` (stereo not drawn), the cell number change was 2.77%. The AC50 under setting [1] is 0.164 µM [falling, full curve, poor fit].
Regarding `COC(C(=O)Nc1ccnn1C1CCN(Cc2nccs2)CC1)c1ccccc1` (stereo not drawn), the AC50 under setting [2] is 0.231 µM [falling, single point].
In the case of `CSc1cccc(NC(=O)c2cc(S(=O)(=O)N3CCc4ccccc43)cn2C)c1`, the cell number change is 33.4%. The AC50 under setting [1] was 0.0231 µM [rising, full curve, poor fit].
Consider `CCC(C)N(C(=O)c1csnn1)C(C(=O)NC1CCCC1)c1ccccc1F` (stereo not drawn), for which the cell number change was determined as 3.23%.
Regarding `Cc1cccc(-c2nnc(SCC(=O)c3ccc(O)cc3O)n2C)c1`, the cell number change came out at 53.3%. In addition, the AC50 under setting [1] is 29.1 µM [rising, single point].
For the compound `C=C1SC(=Nc2ccccc2Cl)N(C(=O)c2sc3ccccc3c2Cl)C12CCCCC2`, the cell number change was 113%. For the same compound, the AC50 under setting [1] was 8.2 µM [rising, partial curve]. Besides, the AC50 under setting [2] was 18.4 µM [rising, partial curve].
`Cc1cccc(C(=O)Nc2ccccc2N2CCN(c3ccc(F)cc3)CC2)c1`: the cell number change was -0.424%. Further, the AC50 under setting [2] is 1.46 µM [rising, full curve, poor fit].
Consider `c1ccc(Oc2cccc(OCCn3cncn3)c2)cc1`, for which the cell number change stood at 5.55%. Also, the AC50 under setting [2] was 1.3 µM [rising, full curve].
Regarding `Cc1nn(C)cc1CN(C)C(=O)c1cc(COc2ccc(F)cc2F)on1`, the cell number change was found to be 19.8%. In addition, the AC50 under setting [2] was 11.6 µM [rising, partial curve, poor fit].
For the compound `CC(C)(C)NC(=O)Cn1c(=O)oc2cc(S(=O)(=O)N3CCc4ccccc43)ccc21`, the AC50 under setting [2] was 2.06 µM [rising, partial curve].
`CC(NC(=O)c1ccc(N2CCCC2)c([N+](=O)[O-])c1)c1ccc(S(N)(=O)=O)cc1` (stereo not drawn): the cell number change came out at 15.8%. Further, under setting [2], the half-maximal activity concentration (AC50) was 29.1 µM [rising, single point].
With `O=C(C1CC1)N1N=C(c2ccccc2)CC1(O)C(F)(F)C(F)(F)F` (stereo not drawn), the cell number change turned out to be 1.46%.
For the compound `Cc1cc(C)cc(NS(=O)(=O)c2ccc(NC(=O)C3CCCCC3C(=O)O)cc2)c1` (stereo not drawn), the AC50 under setting [2] was 3.66 µM [falling, full curve].
For the compound `Cc1cccc(OP(=O)(Nc2c(C)n(C)n(-c3ccccc3)c2=O)Oc2cccc(C)c2)c1`, the cell number change was -18.7%. Moreover, the AC50 under setting [1] is 0.517 µM [falling, full curve, poor fit].
Consider `CC(C)n1c(COc2ccccc2)nc2ccccc21`, for which the cell number change was -1.1%.
In the case of `Cc1cc(C)cc(NC(=O)C(=O)NCC2CCCN2S(=O)(=O)c2cccs2)c1` (stereo not drawn), the cell number change is 4.02%. The AC50 under setting [1] was 7.31 µM [rising, single point]. Besides, the AC50 under setting [2] is 2.06 µM [rising, partial curve].
With `CC1=NN(c2ccccc2)C(=O)C1c1ccccc1` (stereo not drawn), the cell number change came out at 2.93%. The AC50 under setting [2] is 0.651 µM [rising, partial curve].
`N#CC1(NC(=O)Cn2ncc(Cl)c(Cl)c2=O)CCCCC1`: under setting [2], the AC50 was 23.1 µM [falling, partial curve, poor fit].
Consider `Cc1ccc2c(=O)cc(C(=O)Nc3ccc(S(=O)(=O)Nc4onc(C)c4C)cc3)oc2c1`, for which the cell number change stood at 1.49%.
For `CCCCC(=O)Nc1ccc(NC(=O)c2ccco2)cn1`, the cell number change was -10.1%.
Take `COc1cccc(OC)c1C(=O)NCC12CC3CC(C1)CC(CNC(=O)c1c(OC)cccc1OC)(C3)C2`: the cell number change was 28%. Under setting [2], the AC50 is 0.164 µM [falling, full curve, poor fit].
As to `CN(Cc1cc2ccccc2[nH]c1=O)S(=O)(=O)c1ccccc1`, the cell number change amounted to 14.1%. The AC50 under setting [2] is 7.31 µM [rising, partial curve].
As to `CN(C)c1cccc(C(=O)n2cc(C(=O)c3cc(F)ccc3O)cn2)c1`, the cell number change turned out to be 52.1%. In addition, the AC50 under setting [1] was 29.1 µM [rising, single point]. In addition, the AC50 under setting [2] was 20.6 µM [rising, single point].
Turning to `C=CCn1c(SCc2c(Cl)cccc2Cl)nnc1-c1cccnc1`, the cell number change was 57%. In addition, the half-maximal activity concentration (AC50) under setting [1] is 0.366 µM [rising, full curve]. The AC50 under setting [2] is 0.411 µM [rising, full curve].
As to `O=C(OCc1nnc(-c2ccccc2)o1)c1cccnc1Cl`, the cell number change stood at 22%. For the same compound, the AC50 under setting [2] was 2.31 µM [rising, single point].
Regarding `c1cc2nnnn2nc1N1CCCCC1`, the cell number change came to 11.1%.
Turning to `C#CCSc1nnc(-c2ccc([N+](=O)[O-])cc2)o1`, the cell number change is 31.5%. Further, under setting [1], the AC50 is 4.11 µM [rising, full curve]. In addition, the AC50 under setting [2] was 6.51 µM [rising, single point].
For `CCC(c1nnc(SCC(=O)Nc2cc(Cl)ccc2C#N)n1C1CCCCC1)N(C)C` (stereo not drawn), the cell number change was 66.7%. Moreover, the AC50 under setting [1] is 0.231 µM [rising, partial curve, poor fit].
For `O=C(O)c1cc(S(=O)(=O)N(Cc2ccccc2)c2cccc(C(F)(F)F)c2)ccc1Cl`, the cell number change is 18%.
In the case of `CN(CC(=O)NCc1ccc2c(c1)OCO2)S(=O)(=O)c1ccc(F)cc1`, the cell number change was -28.9%. For the same compound, the AC50 under setting [2] was 0.447 µM [falling, single point].
For the compound `Cn1c(CC(=O)Nc2ccccc2C(F)(F)F)c(Sc2ccccc2)c2ccccc21`, the cell number change was -5.69%.
Still for that read-out and setting: the result for `N#Cc1ccccc1Oc1ccccc1C=O` reads -12.4%.
As for `COc1ccc(Cn2cnc3c(NS(C)(=O)=O)c(C)c(C)cc32)cc1`, the AC50 under setting [1] was 1.46 µM [rising, partial curve].
For `C/C(=N\NC(=O)c1cc2c(s1)CCC(C)C2)c1ccncc1` (stereo not drawn), the cell number change was -36.2%. Further, under setting [1], the AC50 was 0.231 µM [falling, full curve, poor fit]. In addition, the AC50 under setting [2] is 6.51 µM [rising, single point].
Regarding `COc1ccc(S(=O)(=O)N2CCN(C(=O)COc3ccc4c(C)cc(=O)oc4c3)CC2)cc1`, the cell number change stood at 15.6%. The AC50 under setting [2] was 2.06 µM [rising, single point].
As to `Nc1nonc1-n1nnc(C(=O)N/N=C/c2ccncc2)c1-c1cccs1`, the cell number change is -7.08%.
As for `COc1cc(C2C(C#N)=C(N)Oc3c2oc(CO)cc3=O)ccc1OC(C)C` (stereo not drawn), the cell number change is -4.23%. In addition, the AC50 under setting [2] was 0.291 µM [falling, partial curve, poor fit].
Take `COc1cccc(NC(=O)CN(C)C(=O)c2ccc(NC3CC3)c([N+](=O)[O-])c2)c1`: the cell number change was found to be 33.2%. Moreover, the AC50 under setting [1] was 5.17 µM [rising, partial curve, poor fit]. The AC50 under setting [2] was 2.31 µM [rising, partial curve, poor fit].
`O=C(Nc1cccc(C(=O)Nc2cccc(C(F)(F)F)c2)c1)c1ccc(=O)[nH]c1`: the cell number change came to 22.5%. Also, under setting [2], the AC50 is 25.9 µM [falling, single point].
With `CCOC(=O)c1c(N2C(=O)Nc3cc(Cl)c(Cl)cc3N2O)sc2c1CCCCC2`, the cell number change was -43.2%. Under setting [1], the AC50 was 11.6 µM [falling, partial curve]. The AC50 under setting [2] was 11.6 µM [falling, partial curve, poor fit].
For the compound `C=C(C)Cn1c(CCNC(=O)C(C)(C)C)nc2ccccc21`, the AC50 is 3.66 µM [rising, single point] under setting [1] and 3.26 µM [rising, single point] under setting [2].
Consider `CCCn1c(NC(=O)c2ccc(Cl)c(S(=O)(=O)N3CCCC3)c2)nc2ccccc21`, for which the cell number change was -20%. Also, the AC50 under setting [2] is 16.4 µM [falling, single point].
For the compound `Cc1ccc(NC(=O)[C@H](C)NC(=O)C2CCN(C(=O)[C@@H](N)C(C)C)CC2)cc1`, the cell number change is -2.84%. The AC50 under setting [2] was 0.13 µM [rising, full curve, poor fit].
For the compound `Cc1cc2cc(CNC(=O)Nc3cccc(Cl)c3)ccc2n1C`, the cell number change was 0.74%.
As to `Cc1ccc(N(C)C2=NC(=O)CS2)cc1Cl`, the cell number change was -0.365%. Moreover, the AC50 under setting [2] was 0.731 µM [rising, full curve].
For `CC(NC(=S)NC1CCC(C(C)(C)C)CC1)c1ccccc1` (stereo not drawn), the cell number change is 48.1%. For the same compound, the AC50 under setting [1] was 36.6 µM [rising, partial curve].
On to `COc1ccc(N(C(=O)Cn2nnc3ccccc32)C(C(=O)NCc2ccco2)c2ccc(C)o2)cc1` (stereo not drawn), for which the cell number change is -44%. Under setting [1], the concentration at half-maximal activity (AC50) is 14.6 µM [falling, partial curve]. Further, under setting [2], the concentration at half-maximal activity (AC50) was 14.6 µM [falling, single point].
For `O=C(Nn1cc(C(=O)Nc2ccccc2F)c2ccccc2c1=O)c1cnccn1`, the cell number change is -64.2%. The AC50 under setting [1] was 29.1 µM [falling, partial curve, poor fit]. In addition, the AC50 under setting [2] is 0.0461 µM [falling, full curve, poor fit].
With `O=C(CC1CCCCC1)NCCOc1ccccc1`, the cell number change was determined as 53.7%. Under setting [1], the AC50 is 11.6 µM [rising, partial curve, poor fit]. In addition, the AC50 under setting [2] was 23.1 µM [rising, partial curve].
For `CCC(C)[C@H](NC(=O)N1CCCC1)C(=O)O` (stereo partly drawn), the cell number change was determined as 22.7%. In addition, under setting [1], the AC50 was 4.61 µM [rising, partial curve]. For the same compound, under setting [2], the AC50 was 2.31 µM [rising, partial curve].
As to `CC(C)n1nc(C(=O)NC2CCCCCC2)c2ccccc2c1=O`, the cell number change is -18%. Moreover, under setting [2], the AC50 was 0.00461 µM [falling, full curve, poor fit].
For the compound `Cc1cc(C)n(-c2ncnc3sc(C)c(C)c23)n1`, the cell number change was -76%. Also, the AC50 under setting [1] was 25.9 µM [falling, partial curve, poor fit]. Also, under setting [2], the AC50 was 16.4 µM [falling, partial curve, poor fit].
`CNC(=O)c1cccc(NC(=O)c2cc(-c3ccccc3)nc3c2cnn3C(C)C)c1`: the cell number change was -75.6%. Also, the AC50 under setting [1] is 11.6 µM [falling, partial curve].
Regarding `Cc1cc([N+](=O)[O-])nn1CC(=O)NNC(=S)Nc1ccc(F)cc1`, the cell number change was -13.8%. Also, the AC50 under setting [2] was 0.164 µM [rising, full curve, poor fit].
`Cc1ccc(S(=O)(=O)n2c([N+](=O)[O-])cnc2C)c(C)c1C`: the cell number change is -31.2%. In addition, under setting [1], the half-maximal activity concentration (AC50) was 29.1 µM [falling, single point].
As for `CC(C)Oc1ccc(Cc2cnc(N)nc2N)cc1`, the cell number change is 81.9%. For the same compound, the AC50 under setting [1] was 20.6 µM [rising, single point].
